Publication PMC7039211, “Cryo-EM structure of the complete and ligand-saturated insulin receptor ectodomain” (The Journal of Cell Biology, 2019)
These are yes or no findings as the source states them, for the method shown. Sequences can lack the tags named with a protein.

Target: T1, 8xHis-tagged control peptide (8xHis tag and part of the HRV3C cleavage site)
T1 sequence (peptide, C-terminal amide; labelled with RED-tris-NTA): HHHHHHHHKLEVLF
Assay: MST; in solution; RED-tris-NTA label on the 8xHis tag of IR-ECD (10 nM) or of the control peptide, unlabelled insulin titrated from 2.5 µM to 76 pM; incubated overnight at 4°C; HBS-T / HBS with 25 µM HCl, pH 7.5; measured at 25°C; one-site fit; n = 3; both purified

## recombinant human insulin (ligand)
  binding: no binding (tested: ≤2.5 µM)
